In this assay the target is GIGYF1 fused in-frame with the abortive biotin ligase BirA* (R118G) (human) (UniProt O75420). The assay is described as follows: proximity labelling; BioID: stable Flp-In T-REx HEK293 cells with GIGYF1 fused to BirA* at the N or C terminus, tetracycline and 50 uM biotin for 24 hours, streptavidin-Sepharose, mass spectrometry, SAINTexpress FDR <= 1%.

Chains of the proteins cited; added tags and fusions are not shown. Lines headed by an entry give the natural chain unless they say otherwise; changes in a name come on top.
UniProt O75420: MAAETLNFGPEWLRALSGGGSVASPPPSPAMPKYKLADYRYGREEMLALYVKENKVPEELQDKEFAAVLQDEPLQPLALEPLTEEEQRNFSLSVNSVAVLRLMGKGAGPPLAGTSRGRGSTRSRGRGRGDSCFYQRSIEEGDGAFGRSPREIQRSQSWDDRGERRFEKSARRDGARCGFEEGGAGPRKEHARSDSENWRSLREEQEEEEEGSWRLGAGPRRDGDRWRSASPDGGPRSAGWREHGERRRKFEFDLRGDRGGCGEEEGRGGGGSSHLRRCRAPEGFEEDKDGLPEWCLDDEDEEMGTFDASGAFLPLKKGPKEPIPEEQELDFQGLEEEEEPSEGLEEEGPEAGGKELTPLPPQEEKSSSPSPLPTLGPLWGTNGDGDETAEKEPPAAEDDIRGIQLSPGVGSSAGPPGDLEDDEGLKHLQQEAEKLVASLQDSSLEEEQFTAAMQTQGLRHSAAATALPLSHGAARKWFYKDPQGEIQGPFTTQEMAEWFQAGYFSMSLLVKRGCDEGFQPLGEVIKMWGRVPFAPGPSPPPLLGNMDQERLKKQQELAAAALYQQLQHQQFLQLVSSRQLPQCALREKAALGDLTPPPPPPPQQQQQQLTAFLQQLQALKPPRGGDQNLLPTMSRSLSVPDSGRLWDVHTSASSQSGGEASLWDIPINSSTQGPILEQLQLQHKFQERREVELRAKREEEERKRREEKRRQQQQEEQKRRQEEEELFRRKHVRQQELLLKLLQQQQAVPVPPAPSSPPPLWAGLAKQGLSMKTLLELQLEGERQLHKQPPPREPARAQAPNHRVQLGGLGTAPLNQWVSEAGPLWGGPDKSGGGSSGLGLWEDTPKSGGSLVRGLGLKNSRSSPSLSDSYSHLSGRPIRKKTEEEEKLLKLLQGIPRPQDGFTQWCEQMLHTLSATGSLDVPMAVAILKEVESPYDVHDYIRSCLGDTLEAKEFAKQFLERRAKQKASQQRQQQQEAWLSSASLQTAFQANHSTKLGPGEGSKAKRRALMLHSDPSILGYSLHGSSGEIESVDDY
UniProt P60228: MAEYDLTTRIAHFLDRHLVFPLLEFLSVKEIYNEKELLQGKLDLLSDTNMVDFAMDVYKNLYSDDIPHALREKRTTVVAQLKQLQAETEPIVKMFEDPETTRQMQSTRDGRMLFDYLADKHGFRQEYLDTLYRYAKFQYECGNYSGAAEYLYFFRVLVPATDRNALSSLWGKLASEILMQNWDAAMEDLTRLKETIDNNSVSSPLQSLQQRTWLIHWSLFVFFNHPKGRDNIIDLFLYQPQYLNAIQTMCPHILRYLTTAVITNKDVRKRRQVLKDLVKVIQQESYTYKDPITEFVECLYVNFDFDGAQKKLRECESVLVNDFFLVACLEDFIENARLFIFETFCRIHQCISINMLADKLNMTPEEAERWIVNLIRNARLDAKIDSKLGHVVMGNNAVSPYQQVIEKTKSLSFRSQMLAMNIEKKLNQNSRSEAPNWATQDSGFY
UniProt O60573: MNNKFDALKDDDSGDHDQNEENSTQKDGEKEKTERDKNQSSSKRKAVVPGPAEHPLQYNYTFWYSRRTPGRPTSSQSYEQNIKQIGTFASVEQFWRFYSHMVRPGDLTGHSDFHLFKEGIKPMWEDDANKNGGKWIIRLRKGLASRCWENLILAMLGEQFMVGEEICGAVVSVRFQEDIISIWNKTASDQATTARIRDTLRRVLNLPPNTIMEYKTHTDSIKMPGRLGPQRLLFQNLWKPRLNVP
UniProt Q9Y262: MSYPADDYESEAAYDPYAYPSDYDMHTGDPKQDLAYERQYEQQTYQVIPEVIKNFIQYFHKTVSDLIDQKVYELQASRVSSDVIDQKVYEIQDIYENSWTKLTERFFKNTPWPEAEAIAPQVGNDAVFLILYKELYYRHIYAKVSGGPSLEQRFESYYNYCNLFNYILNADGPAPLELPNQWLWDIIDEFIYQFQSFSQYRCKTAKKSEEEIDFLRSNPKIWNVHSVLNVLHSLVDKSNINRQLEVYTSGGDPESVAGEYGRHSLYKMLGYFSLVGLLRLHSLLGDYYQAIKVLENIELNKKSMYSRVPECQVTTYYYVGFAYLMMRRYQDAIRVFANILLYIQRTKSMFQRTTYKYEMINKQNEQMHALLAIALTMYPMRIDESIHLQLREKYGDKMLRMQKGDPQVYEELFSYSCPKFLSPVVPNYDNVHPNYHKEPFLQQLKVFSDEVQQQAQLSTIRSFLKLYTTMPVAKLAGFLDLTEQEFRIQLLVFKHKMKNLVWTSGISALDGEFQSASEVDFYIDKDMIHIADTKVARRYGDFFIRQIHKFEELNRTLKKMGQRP
UniProt Q8NDV7: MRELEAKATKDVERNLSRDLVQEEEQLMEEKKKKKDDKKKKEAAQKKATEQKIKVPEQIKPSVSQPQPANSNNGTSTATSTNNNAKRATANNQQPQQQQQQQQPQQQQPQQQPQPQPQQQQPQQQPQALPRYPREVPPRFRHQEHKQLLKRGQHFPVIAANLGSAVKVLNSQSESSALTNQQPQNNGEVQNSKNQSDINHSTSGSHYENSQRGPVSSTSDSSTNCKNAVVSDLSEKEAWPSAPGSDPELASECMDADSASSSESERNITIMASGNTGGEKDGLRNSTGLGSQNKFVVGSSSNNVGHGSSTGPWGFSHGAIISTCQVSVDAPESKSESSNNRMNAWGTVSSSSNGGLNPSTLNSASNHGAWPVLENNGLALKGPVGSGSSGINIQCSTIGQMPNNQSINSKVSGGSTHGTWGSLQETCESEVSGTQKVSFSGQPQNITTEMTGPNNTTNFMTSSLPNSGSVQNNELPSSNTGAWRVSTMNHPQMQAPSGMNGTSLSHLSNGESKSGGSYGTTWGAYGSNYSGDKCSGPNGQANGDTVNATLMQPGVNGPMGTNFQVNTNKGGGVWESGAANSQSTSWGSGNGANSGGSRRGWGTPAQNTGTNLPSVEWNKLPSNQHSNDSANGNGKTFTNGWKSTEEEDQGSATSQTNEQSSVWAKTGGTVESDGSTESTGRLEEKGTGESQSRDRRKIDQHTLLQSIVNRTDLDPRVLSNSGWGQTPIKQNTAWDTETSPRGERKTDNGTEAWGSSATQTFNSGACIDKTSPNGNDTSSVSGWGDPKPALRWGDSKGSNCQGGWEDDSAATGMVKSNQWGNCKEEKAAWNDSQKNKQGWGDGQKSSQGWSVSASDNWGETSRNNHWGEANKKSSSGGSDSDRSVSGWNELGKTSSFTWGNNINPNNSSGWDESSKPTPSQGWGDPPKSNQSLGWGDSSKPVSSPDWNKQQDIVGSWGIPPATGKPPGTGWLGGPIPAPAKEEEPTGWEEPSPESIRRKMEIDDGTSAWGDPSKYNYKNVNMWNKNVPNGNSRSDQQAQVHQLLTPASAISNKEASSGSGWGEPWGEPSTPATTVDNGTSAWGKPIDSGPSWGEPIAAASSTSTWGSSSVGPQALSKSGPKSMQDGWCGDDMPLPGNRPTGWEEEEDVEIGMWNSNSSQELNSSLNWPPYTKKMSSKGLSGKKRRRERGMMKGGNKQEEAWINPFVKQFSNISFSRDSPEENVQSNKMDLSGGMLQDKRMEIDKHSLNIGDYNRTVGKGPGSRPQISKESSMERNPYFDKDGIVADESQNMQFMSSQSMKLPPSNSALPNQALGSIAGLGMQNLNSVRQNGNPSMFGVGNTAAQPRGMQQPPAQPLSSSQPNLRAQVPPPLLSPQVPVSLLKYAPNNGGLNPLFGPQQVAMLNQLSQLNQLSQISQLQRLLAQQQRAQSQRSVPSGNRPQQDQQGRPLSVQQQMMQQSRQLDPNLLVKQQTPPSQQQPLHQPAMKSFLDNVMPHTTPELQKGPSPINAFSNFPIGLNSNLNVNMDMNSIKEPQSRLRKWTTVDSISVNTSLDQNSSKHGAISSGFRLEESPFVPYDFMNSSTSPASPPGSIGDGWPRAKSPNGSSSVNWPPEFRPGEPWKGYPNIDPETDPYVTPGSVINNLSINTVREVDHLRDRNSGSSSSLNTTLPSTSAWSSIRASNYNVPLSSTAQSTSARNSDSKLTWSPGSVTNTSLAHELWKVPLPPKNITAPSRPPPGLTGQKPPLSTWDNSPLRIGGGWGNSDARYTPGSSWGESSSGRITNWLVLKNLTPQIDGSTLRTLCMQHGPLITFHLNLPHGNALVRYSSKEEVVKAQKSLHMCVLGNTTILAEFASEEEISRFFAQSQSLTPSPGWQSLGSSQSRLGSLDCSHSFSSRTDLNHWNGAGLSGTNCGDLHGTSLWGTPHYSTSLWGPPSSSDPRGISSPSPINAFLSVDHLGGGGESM
UniProt Q9HCJ0: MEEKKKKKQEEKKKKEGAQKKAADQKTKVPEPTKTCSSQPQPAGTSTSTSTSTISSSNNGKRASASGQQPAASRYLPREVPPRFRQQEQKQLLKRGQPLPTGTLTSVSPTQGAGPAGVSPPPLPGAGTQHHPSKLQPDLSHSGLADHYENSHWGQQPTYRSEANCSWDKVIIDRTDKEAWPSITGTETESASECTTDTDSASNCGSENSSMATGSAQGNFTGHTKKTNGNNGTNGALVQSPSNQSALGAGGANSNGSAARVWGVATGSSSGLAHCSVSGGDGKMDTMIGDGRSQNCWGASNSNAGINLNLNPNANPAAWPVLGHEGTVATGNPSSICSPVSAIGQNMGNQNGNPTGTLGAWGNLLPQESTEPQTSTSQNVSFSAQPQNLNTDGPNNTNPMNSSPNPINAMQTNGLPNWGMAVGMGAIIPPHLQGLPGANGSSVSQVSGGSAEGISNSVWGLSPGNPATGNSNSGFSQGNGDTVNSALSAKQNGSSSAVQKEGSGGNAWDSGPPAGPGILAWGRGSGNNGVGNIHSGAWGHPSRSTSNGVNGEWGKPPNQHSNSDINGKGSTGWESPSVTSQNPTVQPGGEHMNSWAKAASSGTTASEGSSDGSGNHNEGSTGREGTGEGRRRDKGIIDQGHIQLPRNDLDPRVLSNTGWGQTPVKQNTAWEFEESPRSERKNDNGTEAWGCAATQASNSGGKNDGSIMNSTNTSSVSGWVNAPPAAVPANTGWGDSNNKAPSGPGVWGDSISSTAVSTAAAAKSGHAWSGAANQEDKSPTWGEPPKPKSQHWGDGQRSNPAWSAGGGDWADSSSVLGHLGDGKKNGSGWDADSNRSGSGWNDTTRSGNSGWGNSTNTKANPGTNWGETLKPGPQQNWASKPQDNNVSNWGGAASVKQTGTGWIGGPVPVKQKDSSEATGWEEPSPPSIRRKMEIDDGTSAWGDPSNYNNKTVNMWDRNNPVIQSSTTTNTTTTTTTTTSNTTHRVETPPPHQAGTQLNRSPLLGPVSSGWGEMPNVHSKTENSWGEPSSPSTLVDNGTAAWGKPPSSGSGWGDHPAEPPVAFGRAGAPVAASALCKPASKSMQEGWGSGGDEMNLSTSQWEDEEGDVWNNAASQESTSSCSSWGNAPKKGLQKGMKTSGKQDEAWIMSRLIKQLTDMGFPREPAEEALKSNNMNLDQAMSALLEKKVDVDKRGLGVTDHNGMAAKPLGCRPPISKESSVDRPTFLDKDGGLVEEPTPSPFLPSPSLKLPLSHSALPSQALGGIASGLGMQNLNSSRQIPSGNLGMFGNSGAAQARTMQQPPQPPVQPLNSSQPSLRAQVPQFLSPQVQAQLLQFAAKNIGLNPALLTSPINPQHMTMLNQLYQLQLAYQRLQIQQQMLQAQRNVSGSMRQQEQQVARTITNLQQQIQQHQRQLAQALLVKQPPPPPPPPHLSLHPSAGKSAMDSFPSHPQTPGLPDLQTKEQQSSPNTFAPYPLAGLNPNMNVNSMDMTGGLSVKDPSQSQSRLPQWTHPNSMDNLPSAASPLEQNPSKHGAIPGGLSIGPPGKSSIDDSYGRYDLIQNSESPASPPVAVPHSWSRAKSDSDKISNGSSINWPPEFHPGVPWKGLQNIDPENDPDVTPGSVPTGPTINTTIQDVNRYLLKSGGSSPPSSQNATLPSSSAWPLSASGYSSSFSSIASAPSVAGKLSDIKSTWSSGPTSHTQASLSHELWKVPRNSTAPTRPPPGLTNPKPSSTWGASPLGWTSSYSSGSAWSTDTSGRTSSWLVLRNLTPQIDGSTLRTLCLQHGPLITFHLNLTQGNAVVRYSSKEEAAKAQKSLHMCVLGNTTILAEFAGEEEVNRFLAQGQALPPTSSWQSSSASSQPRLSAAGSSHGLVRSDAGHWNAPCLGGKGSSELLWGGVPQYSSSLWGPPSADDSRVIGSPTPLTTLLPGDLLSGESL

Results are given in words; binding and its absence hold for the method and conditions named. Binding seen in cells or lysates may run through a third protein. These calls come from enrichment with a bait or labelling near it, and not all partners need be listed.

“eIF3E (endogenous) (from UniProt P60228 1-445)”: the binding entry is listed as “binds”.
Under “eIF4E homologous protein 4EHP (eIF4E2) (from UniProt O60573 1-245)” stands “binds”; under “eIF3L (endogenous) (from UniProt Q9Y262 1-564)”, “binds”.
Under TNRC6A (from UniProt Q8NDV7 1-1962) stands “binds”; under TNRC6B (from UniProt Q9UPQ9 1-1833), “binds”.
The result for TNRC6C (from UniProt Q9HCJ0 1-1936) reads “binds”.

B1: zinc finger protein 598 (ZNF598) (protein, UniProt Q86UK7 1-904)
chain: MAAAGGAEGRRAALEAAAAAAPERGGGSCVLCCGDLEATALGRCDHPVCYRCSTKMRVLCEQRYCAVCREELRQVVFGKKLPAFATIPIHQLQHEKKYDIYFADGKVYALYRQLLQHECPRCPELPPFSLFGDLEQHMRRQHELFCCRLCLQHLQIFTYERKWYSRKDLARHRMQGDPDDTSHRGHPLCKFCDERYLDNDELLKHLRRDHYFCHFCDSDGAQDYYSDYAYLREHFREKHFLCEEGRCSTEQFTHAFRTEIDLKAHRTACHSRSRAEARQNRHIDLQFSYAPRHSRRNEGVVGGEDYEEVDRYSRQGRVARAGTRGAQQSRRGSWRYKREEEDREVAAAVRASVAAQQQEEARRSEDQEEGGRPKKEEAAARGPEDPRGPRRSPRTQGEGPGPKETSTNGPVSQEAFSVTGPAAPGCVGVPGALPPPSPKLKDEDFPSLSASTSSSCSTAATPGPVGLALPYAIPARGRSAFQEEDFPALVSSVPKPGTAPTSLVSAWNSSSSSKKVAQPPLSAQATGSGQPTRKAGKGSRGGRKGGPPFTQEEEEDGGPALQELLSTRPTGSVSSTLGLASIQPSKVGKKKKVGSEKPGTTLPQPPPATCPPGALQAPEAPASRAEGPVAVVVNGHTEGPAPARSAPKEPPGLPRPLGSFPCPTPQEDFPALGGPCPPRMPPPPGFSAVVLLKGTPPPPPPGLVPPISKPPPGFSGLLPSPHPACVPSPATTTTTKAPRLLPAPRAYLVPENFRERNLQLIQSIRDFLQSDEARFSEFKSHSGEFRQGLISAAQYYKSCRDLLGENFQKVFNELLVLLPDTAKQQELLSAHTDFCNREKPLSTKSKKNKKSAWQATTQQAGLDCRVCPTCQQVLAHGDASSHQALHAARDDDFPSLQAIARIIT
As to B1, the binding result is on record as “binds”.

The record behind these values is paper PMC466957.
